Laboratory results taken from the supplement of paper PMC10849652.
This is one part of the list.

By UniProt entry, the sequences of proteins in these tests, tags left out. Where a name states a change or a piece, a line headed by the entry shows the natural chain unless it says otherwise.
UniProt Q8TDJ6, whole entry, looked up: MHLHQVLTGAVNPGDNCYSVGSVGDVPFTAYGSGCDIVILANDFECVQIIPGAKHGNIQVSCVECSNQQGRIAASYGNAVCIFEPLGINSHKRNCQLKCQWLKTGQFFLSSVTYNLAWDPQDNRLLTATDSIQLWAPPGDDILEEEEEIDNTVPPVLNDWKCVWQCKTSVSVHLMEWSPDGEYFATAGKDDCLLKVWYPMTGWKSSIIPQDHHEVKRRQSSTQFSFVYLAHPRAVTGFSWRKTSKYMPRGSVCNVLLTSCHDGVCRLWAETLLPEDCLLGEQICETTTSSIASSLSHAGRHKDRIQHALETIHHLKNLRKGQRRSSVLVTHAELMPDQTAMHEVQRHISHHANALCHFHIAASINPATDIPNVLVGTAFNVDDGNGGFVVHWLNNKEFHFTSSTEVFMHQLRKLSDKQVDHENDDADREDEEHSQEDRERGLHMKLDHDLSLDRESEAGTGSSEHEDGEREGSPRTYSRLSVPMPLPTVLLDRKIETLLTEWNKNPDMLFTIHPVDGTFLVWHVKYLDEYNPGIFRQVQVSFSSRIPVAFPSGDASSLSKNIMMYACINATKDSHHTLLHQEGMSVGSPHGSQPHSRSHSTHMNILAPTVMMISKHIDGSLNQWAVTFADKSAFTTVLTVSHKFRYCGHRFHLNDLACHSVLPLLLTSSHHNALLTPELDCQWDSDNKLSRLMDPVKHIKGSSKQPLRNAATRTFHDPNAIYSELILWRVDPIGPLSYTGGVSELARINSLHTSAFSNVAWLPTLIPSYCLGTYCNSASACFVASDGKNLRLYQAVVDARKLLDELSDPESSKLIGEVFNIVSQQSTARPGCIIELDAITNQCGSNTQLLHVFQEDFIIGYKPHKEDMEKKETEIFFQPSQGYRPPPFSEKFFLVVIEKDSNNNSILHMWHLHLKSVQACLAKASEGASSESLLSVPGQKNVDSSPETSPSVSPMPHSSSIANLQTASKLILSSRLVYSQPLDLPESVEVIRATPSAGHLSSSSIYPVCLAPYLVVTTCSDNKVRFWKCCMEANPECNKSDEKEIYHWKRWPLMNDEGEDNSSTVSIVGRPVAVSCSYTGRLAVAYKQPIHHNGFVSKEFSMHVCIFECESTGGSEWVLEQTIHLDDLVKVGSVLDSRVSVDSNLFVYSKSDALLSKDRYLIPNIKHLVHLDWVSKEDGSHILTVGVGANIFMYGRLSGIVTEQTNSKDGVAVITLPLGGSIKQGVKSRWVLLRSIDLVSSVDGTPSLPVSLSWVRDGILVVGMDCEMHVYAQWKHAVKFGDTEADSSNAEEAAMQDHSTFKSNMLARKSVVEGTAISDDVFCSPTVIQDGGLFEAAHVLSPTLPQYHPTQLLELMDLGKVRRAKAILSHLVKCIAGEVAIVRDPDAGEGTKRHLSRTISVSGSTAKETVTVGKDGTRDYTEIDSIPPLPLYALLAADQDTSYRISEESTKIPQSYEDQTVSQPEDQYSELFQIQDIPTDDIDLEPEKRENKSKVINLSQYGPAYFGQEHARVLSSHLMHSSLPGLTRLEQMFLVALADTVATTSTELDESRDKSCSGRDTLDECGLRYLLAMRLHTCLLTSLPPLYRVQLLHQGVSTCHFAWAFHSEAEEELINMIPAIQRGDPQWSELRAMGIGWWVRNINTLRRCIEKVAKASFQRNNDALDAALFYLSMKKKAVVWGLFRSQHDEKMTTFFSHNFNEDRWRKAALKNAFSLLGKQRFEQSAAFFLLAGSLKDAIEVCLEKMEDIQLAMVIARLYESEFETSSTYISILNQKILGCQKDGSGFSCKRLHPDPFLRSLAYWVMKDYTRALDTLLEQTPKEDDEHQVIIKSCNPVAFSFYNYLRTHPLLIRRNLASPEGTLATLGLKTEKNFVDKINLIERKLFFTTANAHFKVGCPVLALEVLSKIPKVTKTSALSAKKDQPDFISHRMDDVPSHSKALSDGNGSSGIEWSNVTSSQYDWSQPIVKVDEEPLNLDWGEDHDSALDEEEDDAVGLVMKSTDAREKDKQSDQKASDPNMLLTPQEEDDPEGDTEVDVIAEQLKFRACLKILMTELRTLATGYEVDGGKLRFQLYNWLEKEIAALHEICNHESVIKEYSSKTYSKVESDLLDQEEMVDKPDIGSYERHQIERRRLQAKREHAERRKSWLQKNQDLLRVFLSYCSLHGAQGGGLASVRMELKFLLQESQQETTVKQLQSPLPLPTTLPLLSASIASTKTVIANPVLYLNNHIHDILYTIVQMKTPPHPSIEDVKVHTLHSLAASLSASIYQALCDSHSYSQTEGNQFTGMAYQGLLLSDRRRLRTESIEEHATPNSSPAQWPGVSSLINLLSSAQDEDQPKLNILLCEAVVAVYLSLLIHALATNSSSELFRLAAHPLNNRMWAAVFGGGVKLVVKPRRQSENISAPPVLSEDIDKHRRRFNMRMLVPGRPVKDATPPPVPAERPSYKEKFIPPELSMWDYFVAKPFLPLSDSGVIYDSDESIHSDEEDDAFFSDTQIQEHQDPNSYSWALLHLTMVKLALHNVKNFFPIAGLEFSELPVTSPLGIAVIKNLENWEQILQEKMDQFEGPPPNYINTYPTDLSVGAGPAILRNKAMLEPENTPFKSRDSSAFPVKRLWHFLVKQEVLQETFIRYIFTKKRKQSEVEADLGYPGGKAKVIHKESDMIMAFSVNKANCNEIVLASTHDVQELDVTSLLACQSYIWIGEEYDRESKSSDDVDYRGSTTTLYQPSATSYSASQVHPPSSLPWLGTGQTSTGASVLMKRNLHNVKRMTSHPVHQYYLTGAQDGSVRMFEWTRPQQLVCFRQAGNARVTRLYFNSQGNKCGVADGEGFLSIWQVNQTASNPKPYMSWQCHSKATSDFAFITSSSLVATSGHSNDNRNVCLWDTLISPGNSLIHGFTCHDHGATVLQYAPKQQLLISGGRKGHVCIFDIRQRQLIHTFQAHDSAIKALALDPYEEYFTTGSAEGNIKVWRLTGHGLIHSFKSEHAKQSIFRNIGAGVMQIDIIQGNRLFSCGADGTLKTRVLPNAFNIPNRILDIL
UniProt Q9UBT3: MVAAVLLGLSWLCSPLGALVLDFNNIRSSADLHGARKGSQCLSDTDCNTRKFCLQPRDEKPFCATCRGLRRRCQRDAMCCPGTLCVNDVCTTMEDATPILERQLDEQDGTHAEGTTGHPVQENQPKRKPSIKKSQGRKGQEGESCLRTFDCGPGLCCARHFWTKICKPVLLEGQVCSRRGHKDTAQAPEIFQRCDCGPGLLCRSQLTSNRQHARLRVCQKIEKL
UniProt P23743: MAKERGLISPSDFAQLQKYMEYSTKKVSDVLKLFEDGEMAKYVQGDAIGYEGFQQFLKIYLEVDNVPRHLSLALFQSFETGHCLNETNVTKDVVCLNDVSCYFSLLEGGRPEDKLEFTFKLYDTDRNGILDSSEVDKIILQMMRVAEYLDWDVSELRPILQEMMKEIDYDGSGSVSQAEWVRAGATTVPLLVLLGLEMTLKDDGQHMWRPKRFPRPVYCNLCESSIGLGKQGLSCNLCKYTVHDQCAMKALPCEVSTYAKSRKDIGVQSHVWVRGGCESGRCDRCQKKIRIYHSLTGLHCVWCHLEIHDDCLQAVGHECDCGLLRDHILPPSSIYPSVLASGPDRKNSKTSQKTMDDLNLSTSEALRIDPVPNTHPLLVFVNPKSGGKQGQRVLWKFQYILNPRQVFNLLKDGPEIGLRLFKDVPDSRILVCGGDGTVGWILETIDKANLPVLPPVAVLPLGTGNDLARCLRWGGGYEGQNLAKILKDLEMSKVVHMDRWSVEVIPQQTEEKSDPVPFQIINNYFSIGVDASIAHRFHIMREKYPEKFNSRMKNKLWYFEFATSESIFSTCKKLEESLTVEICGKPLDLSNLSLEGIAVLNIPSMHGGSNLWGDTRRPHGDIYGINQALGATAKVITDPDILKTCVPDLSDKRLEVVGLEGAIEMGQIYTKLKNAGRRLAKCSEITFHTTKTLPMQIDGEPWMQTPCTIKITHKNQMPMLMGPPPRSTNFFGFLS
UniProt Q9H4E7, whole entry, looked up: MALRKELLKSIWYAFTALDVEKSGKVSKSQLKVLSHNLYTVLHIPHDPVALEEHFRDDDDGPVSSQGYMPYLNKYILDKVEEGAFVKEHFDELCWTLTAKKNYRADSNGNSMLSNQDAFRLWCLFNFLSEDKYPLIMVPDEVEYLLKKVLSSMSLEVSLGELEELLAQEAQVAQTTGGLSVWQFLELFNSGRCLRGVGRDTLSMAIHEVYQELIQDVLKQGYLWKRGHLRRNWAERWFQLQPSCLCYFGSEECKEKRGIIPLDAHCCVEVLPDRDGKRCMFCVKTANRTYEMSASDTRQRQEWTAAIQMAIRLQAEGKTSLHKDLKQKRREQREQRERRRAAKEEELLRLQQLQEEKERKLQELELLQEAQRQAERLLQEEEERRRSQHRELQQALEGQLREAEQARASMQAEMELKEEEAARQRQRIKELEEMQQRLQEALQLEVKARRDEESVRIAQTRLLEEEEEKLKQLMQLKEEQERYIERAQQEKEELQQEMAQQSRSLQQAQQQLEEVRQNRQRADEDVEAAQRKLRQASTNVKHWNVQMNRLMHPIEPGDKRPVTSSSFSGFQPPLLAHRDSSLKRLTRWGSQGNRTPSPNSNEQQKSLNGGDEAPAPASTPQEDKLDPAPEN
UniProt Q9Y222: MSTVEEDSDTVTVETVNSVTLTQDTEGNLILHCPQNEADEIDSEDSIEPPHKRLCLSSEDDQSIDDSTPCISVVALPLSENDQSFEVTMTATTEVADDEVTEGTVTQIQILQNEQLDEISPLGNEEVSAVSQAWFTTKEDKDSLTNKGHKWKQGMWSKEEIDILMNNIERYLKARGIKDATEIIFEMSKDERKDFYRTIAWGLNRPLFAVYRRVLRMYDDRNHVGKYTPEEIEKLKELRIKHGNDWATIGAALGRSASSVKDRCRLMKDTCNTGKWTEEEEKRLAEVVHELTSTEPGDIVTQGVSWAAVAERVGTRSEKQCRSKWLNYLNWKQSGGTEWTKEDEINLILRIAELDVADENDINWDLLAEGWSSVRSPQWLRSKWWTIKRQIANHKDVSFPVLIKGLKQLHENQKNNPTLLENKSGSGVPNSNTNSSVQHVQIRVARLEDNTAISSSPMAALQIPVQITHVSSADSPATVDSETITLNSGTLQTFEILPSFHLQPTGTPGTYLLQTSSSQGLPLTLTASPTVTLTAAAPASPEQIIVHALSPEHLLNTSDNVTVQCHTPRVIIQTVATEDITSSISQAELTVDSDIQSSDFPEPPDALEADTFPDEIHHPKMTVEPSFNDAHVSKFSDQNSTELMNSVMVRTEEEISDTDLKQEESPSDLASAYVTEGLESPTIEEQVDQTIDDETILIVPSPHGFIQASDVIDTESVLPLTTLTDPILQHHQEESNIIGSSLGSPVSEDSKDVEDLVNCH
UniProt Q8IY37: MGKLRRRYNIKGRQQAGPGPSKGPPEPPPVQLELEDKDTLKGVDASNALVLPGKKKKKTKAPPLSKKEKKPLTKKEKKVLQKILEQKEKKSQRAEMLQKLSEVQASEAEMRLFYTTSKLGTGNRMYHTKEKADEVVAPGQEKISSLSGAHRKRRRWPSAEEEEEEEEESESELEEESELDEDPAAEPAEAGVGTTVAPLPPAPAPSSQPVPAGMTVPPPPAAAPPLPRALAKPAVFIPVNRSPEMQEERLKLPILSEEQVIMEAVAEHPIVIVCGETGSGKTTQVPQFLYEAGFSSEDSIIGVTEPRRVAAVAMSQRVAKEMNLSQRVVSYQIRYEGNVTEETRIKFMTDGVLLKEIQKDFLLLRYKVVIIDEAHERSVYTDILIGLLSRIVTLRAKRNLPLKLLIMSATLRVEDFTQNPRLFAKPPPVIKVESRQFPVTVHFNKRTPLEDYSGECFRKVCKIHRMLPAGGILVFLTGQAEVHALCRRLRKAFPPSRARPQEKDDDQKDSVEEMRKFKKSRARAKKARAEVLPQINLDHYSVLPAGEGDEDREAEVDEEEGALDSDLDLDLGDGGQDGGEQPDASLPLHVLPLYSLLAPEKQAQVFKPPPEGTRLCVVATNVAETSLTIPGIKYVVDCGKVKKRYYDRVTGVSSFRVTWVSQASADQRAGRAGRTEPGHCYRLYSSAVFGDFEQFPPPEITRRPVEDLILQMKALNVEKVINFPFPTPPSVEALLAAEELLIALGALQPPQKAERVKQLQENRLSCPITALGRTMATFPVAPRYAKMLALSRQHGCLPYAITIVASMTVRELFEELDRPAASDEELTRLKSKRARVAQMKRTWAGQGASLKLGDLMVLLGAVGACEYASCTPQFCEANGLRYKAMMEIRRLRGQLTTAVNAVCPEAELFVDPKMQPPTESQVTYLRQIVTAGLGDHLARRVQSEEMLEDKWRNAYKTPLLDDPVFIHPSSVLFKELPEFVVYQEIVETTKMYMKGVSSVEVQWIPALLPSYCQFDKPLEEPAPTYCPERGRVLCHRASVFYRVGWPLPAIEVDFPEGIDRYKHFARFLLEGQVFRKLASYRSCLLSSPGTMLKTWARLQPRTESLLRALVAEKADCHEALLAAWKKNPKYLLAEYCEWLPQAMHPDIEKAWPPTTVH

Columns and labels:
Assay in all cases: log2 fold change, soluble protein after heating vs DMSO (PISA); higher = thermal stabilisation; K562 cells, 10 uM, 30 min; active = over 0.2 and 3.5 SD of the protein, either way, in both replicates (recomputed)
[1] = compound: NC(=O)Nc1cc(-c2cccc(F)c2)sc1C(=O)N[C@H]1CCCNC1
Procedure, shortened: (§1)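 Soluble protein was defined as the supernatant after 21,000xg for 90 min. It came from K562 cells at 2×10^6 cells/mL given 10 μM compound for 30 min, heated in aliquots for 3 min across 48°C-58°C, pooled, and extracted in PBS with 0.5% NP-40 at 4°C, and was quantified by TMTpro 16plex LC-MS/MS with equalised channel sums. Thermal stability against control samples, from duplicates, is reported as log2 fold change.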

[2] = compound: Nc1ccccc1NC(=O)c1ccc(CNC(=O)OCc2cccnc2)cc1 [entinostat]
Procedure, shortened: as §1

[3] = compound: O=C(CCCCCCNC(=O)c1cnc(N(c2ccccc2)c2ccccc2Cl)nc1)NO [citarinostat]
Procedure, shortened: as §1

[4] = compound: c1cc(OCCN2CCCCC2)cc(-c2n[nH]c3ccc(-c4nnc[nH]4)cc23)c1
Procedure, shortened: as §1

[5] = compound: NC(=O)c1cnc(N[C@@H]2CCCC[C@@H]2N)nc1Nc1cccc(-n2nccn2)c1
Procedure, shortened: as §1

[6] = compound: NCC(=O)Nc1ccc(-n2nc(C(F)(F)F)cc2-c2ccc3c(ccc4ccccc43)c2)cc1
Procedure, shortened: as §1

[7] = compound: O=C(CCCCCCC(=O)Nc1ccccc1)NO [vorinostat]
Procedure, shortened: as §1

[8] = compound: O=C1NC(=O)C(c2cnc3ccccn23)=C1c1cn2c3c(cc(F)cc13)CN(C(=O)N1CCCCC1)CC2
Procedure, shortened: as §1

[9] = compound: NC1(c2ccc(-c3nc4ccn5c(=O)[nH]nc5c4cc3-c3ccccc3)cc2)CCC1
Procedure, shortened: as §1

[10] = compound: O=C(O)c1ccc2c(c1)nc(Nc1cccc(Cl)c1)c1ccncc12 [silmitasertib]
Procedure, shortened: as §1

Measured: log2 fold change

DESI2 (UniProt Q9BSY9)
inactive: [1] 0.016 | [2] 0.029 | [3] 0.103 | [4] -0.089

DEF8 (UniProt Q6ZN54)
inactive: [5] -0.12 | [6] 0.22

DMXL2 isoform 3 (UniProt Q8TDJ6)
inactive: [1] -0.077 | [5] -0.123 | [6] -0.323 | [2] 0.079 | [7] -0.182 | [8] 0.026

DNAH10 (UniProt Q8IVF4)
inactive: [1] 0.057 | [9] -0.045 | [6] 0.026 | [2] -0.041 | [7] 0.083 | [3] 0.242 | [10] -0.101 | [8] -0.102 | [4] 0.172

DHX35 (UniProt Q9H5Z1)
inactive: [8] -0.23

DDX46, A0A0C4DG89
inactive: [9] -0.177 | [10] -0.288 | [8] -0.148

DERPC (UniProt P0CG12)
inactive: [9] 0.008 | [6] -0.16 | [7] -0.042 | [3] -0.049 | [10] -0.024 | [4] -0.045

DKK4 (UniProt Q9UBT3)
inactive: [7] -2.08

DDX39B (UniProt H0Y400)
inactive: [8] 0.152

DDX55 (UniProt Q8NHQ9)
inactive: [1] 0.065 | [6] 0.086 | [2] 0.126 | [3] -0.215 | [4] 0.053

DDR1 isoform 5 (UniProt Q08345)
inactive: [6] -0.1 | [7] 0.304 | [8] -0.003

DNA2 (UniProt P51530)
inactive: [1] 0.317 | [6] -0.071 | [2] 0.017 | [7] -0.05 | [3] -0.021 | [8] 0.093 | [4] -0.126

DGKA (UniProt P23743)
inactive: [1] 0.065 | [9] -0.109 | [6] 0.039 | [2] 0.11 | [10] 0.285 | [8] -0.164

DEF6 (UniProt Q9H4E7)
inactive: [9] 0.016 | [10] 0.079 | [8] 0.237

DMTF1 (UniProt Q9Y222)
inactive: [1] -0.131 | [5] 0.091 | [6] 0.097 | [2] -0.044 | [7] 0.34

DLC1 (UniProt Q96QB1)
inactive: [9] 0.136 | [6] 0.002 | [7] -0.102 | [3] -0.101 | [10] -0.03 | [8] -0.088 | [4] -0.052

DHX32 (UniProt Q7L7V1)
inactive: [3] 0.204 | [8] -0.163 | [4] -0.463

DDAH1 (UniProt O94760)
inactive: [5] -0.043 | [9] -0.03 | [6] -0.007 | [7] 0.069 | [3] 0.08 | [10] -0.012 | [4] -0.011

DHX34 (UniProt Q14147)
inactive: [3] -0.078 | [8] -0.074 | [4] 0

DFFA isoform 2 (UniProt O00273)
inactive: [9] 0.04 | [10] -0.106 | [8] 0.058

DDX25 (UniProt Q9UHL0)
inactive: [5] 0.197 | [9] -0.105 | [6] 0.367 | [3] 0.201 | [10] 0.018 | [4] -0.024

DHX37 (UniProt Q8IY37)
inactive: [5] 0.016 | [8] 0.088

DHTKD1 (UniProt Q96HY7)
inactive: [3] 0.099 | [8] 0.033 | [4] 0.014

Taken from above (6 entries):
DLC1 (UniProt Q96QB1)
inactive: [9] 0.136 | [6] 0.002 | [7] -0.102 | [3] -0.101 | [10] -0.03 | [8] -0.088 | [4] -0.052

DHX32 (UniProt Q7L7V1)
inactive: [3] 0.204 | [8] -0.163 | [4] -0.463

DDAH1 (UniProt O94760)
inactive: [5] -0.043 | [9] -0.03 | [6] -0.007 | [7] 0.069 | [3] 0.08 | [10] -0.012 | [4] -0.011

DHX34 (UniProt Q14147)
inactive: [3] -0.078 | [8] -0.074 | [4] 0

DFFA isoform 2 (UniProt O00273)
inactive: [9] 0.04 | [10] -0.106 | [8] 0.058

DDX25 (UniProt Q9UHL0)
inactive: [5] 0.197 | [9] -0.105 | [6] 0.367 | [3] 0.201 | [10] 0.018 | [4] -0.024

Next part.

DDHD1 (UniProt Q8NEL9)
inactive: [1] 0.173 | [2] -0.077 | [7] 0.009

DET1 isoform 2 (UniProt Q7L5Y6)
inactive: [9] 0.001 | [10] 0.043

DECR1 (UniProt E5RJD2)
inactive: [9] -0.075 | [7] -0.045 | [10] -0.243

DESI1 (UniProt Q6ICB0)
inactive: [5] -0.034 | [6] -0.096 | [3] 0.092 | [4] -0.179

DENND1C (UniProt Q8IV53)
inactive: [1] 0.049 | [6] 0.089 | [2] -0.097

DHPS (UniProt M0R1T2)
inactive: [1] 0.063 | [2] 0.072

DLK1 (UniProt P80370)
inactive: [6] -0.061 | [3] -0.018 | [8] -0.109 | [4] -0.203

DMKN (UniProt Q6E0U4)
inactive: [9] 0.016 | [6] 0.267 | [3] -0.279 | [10] 0.127 | [4] 0.173

DNAH5 (UniProt Q8TE73)
inactive: [1] -0.029 | [9] -0.077 | [6] 0.016 | [2] -0.037 | [7] -0.103 | [3] 0.047 | [10] 0.001 | [8] 0.014 | [4] 0.029
